This note sets out measurements from PMC6153294.

By UniProt entry, the sequences of proteins in these tests, tags left out. Residues count along the entry.
UniProt Q86Z14, residues 52-967: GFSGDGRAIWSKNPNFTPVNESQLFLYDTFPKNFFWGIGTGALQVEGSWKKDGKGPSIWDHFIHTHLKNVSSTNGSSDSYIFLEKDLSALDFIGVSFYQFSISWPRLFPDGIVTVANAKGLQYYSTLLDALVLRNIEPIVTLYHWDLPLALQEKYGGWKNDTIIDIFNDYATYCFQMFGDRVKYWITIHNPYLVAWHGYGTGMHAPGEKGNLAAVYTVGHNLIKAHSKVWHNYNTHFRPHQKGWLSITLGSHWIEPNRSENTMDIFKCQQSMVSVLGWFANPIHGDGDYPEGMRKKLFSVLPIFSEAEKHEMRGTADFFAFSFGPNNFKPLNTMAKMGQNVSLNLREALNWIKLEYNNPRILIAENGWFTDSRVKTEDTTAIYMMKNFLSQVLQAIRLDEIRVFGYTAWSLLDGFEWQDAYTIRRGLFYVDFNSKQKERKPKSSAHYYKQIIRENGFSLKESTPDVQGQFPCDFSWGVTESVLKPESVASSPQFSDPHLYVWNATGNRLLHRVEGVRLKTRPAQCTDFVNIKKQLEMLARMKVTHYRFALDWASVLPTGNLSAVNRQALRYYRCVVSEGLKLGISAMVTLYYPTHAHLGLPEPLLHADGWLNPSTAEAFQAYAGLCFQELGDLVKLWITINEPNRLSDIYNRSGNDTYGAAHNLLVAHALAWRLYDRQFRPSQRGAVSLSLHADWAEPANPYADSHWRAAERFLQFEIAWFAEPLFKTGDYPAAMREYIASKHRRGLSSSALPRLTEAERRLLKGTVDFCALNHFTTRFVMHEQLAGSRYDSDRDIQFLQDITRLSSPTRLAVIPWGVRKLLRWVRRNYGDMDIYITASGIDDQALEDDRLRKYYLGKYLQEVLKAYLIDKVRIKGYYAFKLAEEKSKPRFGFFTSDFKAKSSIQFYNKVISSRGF

In assay [1] the target is full-length extracellular domain of β-Klotho (residues 52–967) (human) (UniProt Q86Z14). The assay is described as follows: SEC; size-exclusion chromatography profile of full-length β-Klotho (Fig. S2); conditions not given; both purified. For orientation: SEC sorts molecules by how far they enter the pores of the column.
The target is the same in assay [2]. The assay can be described thus: negative stain EM; purified β-Klotho or β-Klotho/Fab 39F7 complex at 10 μg/ml in 25 mM Hepes, pH 7.5, 150 mM NaCl; 2% uranyl acetate; reference-free 2D class averages; both purified.

No constants are given. Whether binding was seen depends on the method and setting.

On to “full-length extracellular domain of β-Klotho (residues 52–967) (from UniProt Q86Z14 52-967) (domain or fragment)”, for which the binding result in assay [1] and in assay [2] was “no binding” in each case.
